Assay results

Source: PubChem BioAssay AID1159506 (NCATS, 2015).

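Genome-wide siRNA knockdown in TC32 Ewing sarcoma cells, comparing luciferase light from an NR0B1-promoter reporter with a CMV-promoter reporter 48 hours after transfection. Each siRNA was applied at 20 nM. A z-score of the log NR0B1-over-CMV signal, less the median of siRNAs with the same seed; more negative means a stronger specific loss of the NR0B1 reporter.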

The strongest results of the screen are mostly left out here. Sequences are the guide (antisense) strand, without overhang.

Sequence,gene,seed-corrected z-score
AAAGUUCUGCCUCUCGCCG,CCDC17,-1.205
UUCCUGAUCACGGAGGAGG,C3P1,-0.6368
UUUAGUUCACCAUAGCCUG,NUFIP2,0.07789
UUAAUCAAAGGAGUGAGUG,NAP1L2,0.7846
UAAAGCCUUAGAGUAACGU,LINC00173,-0.6356
UUCGUGUGGAGUUAAUUGC,PXDNL,-0.5415
AAAGUCUUGGUAGCAAUGG,B4GALNT2,-0.3069
UAGGGAAAGAGCAGCACCC,FAM57B,-0.2377
UCAAUUGUGAAGUGUAUUG,PECAM1,0.6676
UUUGUAGCAGAAGCUGUCC,TECPR2,-0.8335
UUCCAUAUUAUCGAUUAGC,EVC,1.201
UUAGUGAACCUGUGGAUGU,NDUFA1,0.09015
UUAUUGUGAAGCACUGCUC,LINC00239,0.3719
UCGGUCCAAAGAAUGCACC,COQ4,0.02411
UUUGCUGAAAUGCAAUUUC,ZP2,0.3765
UACGCUAUCACUACCCUUG,TGM3,-0.02357
AUCGUAGCAAAUUAAACAC,KCMF1,-0.635
AAACCUGCAAGUUACAGUG,RDH10,0.8082
UACGGGUACAGACGUGAAG,RFPL4A,0.05593
UUCCUUUUAGCAGCAGGAG,LOC340268,-0.201
UGAGUACAUAUGUUUGUCU,PATE4,-0.4649
AAACUUGAGAAAUCCAUUU,CCDC30,0.6558
AUGAAUAUAAUCGAGCUCC,DCDC2C,0.9337
UGACUUGCAAGUGAGGCAG,LOC728868,-0.535
UUGUUGAUCUUGUCCCUCC,USF2,-0.8238
UGAGUAACGGGAGCUAAGG,FAM216A,-0.1485
UCAAUCUCCAGUACUCAUU,S100A13,0.07523
UUAAUUCGAAAAACUAUCC,MYO9A,1.12
UUGGAUUCCAGUAUGUAGG,RUFY3,0.8968
UGAGAGGCUUCUGUGGUCC,C11orf42,0.2238
UCUCUUCCCUCGUUGACUC,AGAP11,0.6055
AAAGUUUAUCUUCUCAAUG,OR6M1,0.3242
ACUGAUAUAAGGUAAAGCC,DRAM2,-0.2985
UCAGUUGAGACUGUGAGAU,SOX9-AS1,-0.1171
UAUACAUGCUGAACCAUUG,TPGS2,0.06736
UUCUUGAUUCCUCCGCUCC,AFF2,0.1943
UUGCAUAUUUUCCUACUCC,C9orf116,-1.233
UCCGUUUCAUUCAUAAUGC,YIPF7,-0.7335
UUCUAUUGUAGAAGUGCUC,GALNT4,0.1632
UAGCAUAUUAGAGGUCGGC,TTC6,1.096
UCCGGGAUAAUCUGUAGUC,KIAA0430,0.3656
UUCGUUUUAAGGAGAACAG,RBM34,0.7812
UUAGGAAUAGGCUCAGAGC,LOC388942,1.217
UGACGUAGGAGUGCUUCUG,LOC401052,-0.6357
UUACCUGAAGGCGCAAUUC,LOC645177,1.568
ACAGCUGUCACAAUGGUCU,SLC6A7,0.5727
UCUUCUACCAAACCAGCUA,ANAPC16,-0.02452
UUUGCAACCUCCGUGUUGG,RIMS2,0.759
UUCGUGAUCACCAGAAAGG,LARP7,0.2722
UUGUUAAUGGAGGCCUUCC,MUC17,-0.2089
UCUUUUCCAUCCAUGAUAC,ASRGL1,-1.059
UCCACUCUCGCUCCAAACC,ASB10,0.08651
UUUGCAUCAGCAUUUAUGC,DLEU7,0.0981
UUUGUUAGGAUCAUGGGUC,PLAGL2,1.163
AGGACUAACAUGAUGUGUG,GTF2H2,0.7146
AAUUGUCUUAUAUUCACUU,ZNF826P,1.154
UCUUGUCCCAGAUCUGCUC,DHRS2,0.3668
UAGUGCACCACUGUCGGCU,PLA2G15,0.6908
UCACGUACGUGAUGGAGCG,CLN6,-1.186
UCACAAGCAAUGCAAAGUC,KRTAP1-5,-0.2945
UAUGAUGAACGAUUUCUUC,ATPIF1,-0.2841
UAAUUAGGACUCGAAAACC,PTEN,-0.01356
UUUUCGCAGAGAGUAGUCC,TBC1D32,0.4173
UUUCUUAAGAGCAAAAUUG,LOC728999,0.3559
UUGGGAAUCCAUACAGCUG,TEX38,-0.2353
AAACGGUAACUUUUGUCCC,RASSF8,0.005129
UAUAGUCUCGGUACAACUC,ARV1,0.9516
AAUAUGUUUAUCACUCGUG,SLC3A1,0.1997
UAGCCUAAAAGACAGAAGG,KRTAP3-1,-0.7757
UUCUGCACUGUAAUUAGCC,GJA1,0.111

The first 8 entries again:

Sequence,gene,seed-corrected z-score
AAAGUUCUGCCUCUCGCCG,CCDC17,-1.205
UUCCUGAUCACGGAGGAGG,C3P1,-0.6368
UUUAGUUCACCAUAGCCUG,NUFIP2,0.07789
UUAAUCAAAGGAGUGAGUG,NAP1L2,0.7846
UAAAGCCUUAGAGUAACGU,LINC00173,-0.6356
UUCGUGUGGAGUUAAUUGC,PXDNL,-0.5415
AAAGUCUUGGUAGCAAUGG,B4GALNT2,-0.3069
UAGGGAAAGAGCAGCACCC,FAM57B,-0.2377